Values of other authors as cited in patent US20110319329A1, “USE OF SO[…] IN CLUSTER HEADACHE” (priority 2007, published 2011).
At least one peptide structure holds a part that was inferred or is arguable (an end, a ring closure or a residue). Numbered stars: 1 amine (or outer) side, 2 acyl side, 3 side chain; on linkers, the order of the positions; unused ones are H or OH. Square brackets hold non-standard residues; d marks the D form. Side chains are listed from the residue outwards. Peptide text beside a SMILES is read from it. * marks the point of attachment. Ethylenediamine = C(CN[*:2])N[*:1]; Hyp = O=C(O)[C@@H]1C[C@@H](O)CN1; Phg = N[C@H](C(=O)O)c1ccccc1; CO = O=C([*:1])[*:2]; Bn = c1ccc(C*)cc1

The chains behind the UniProt entries cited, without tags or fusion partners. Where a name states a change or a piece, a line headed by the entry shows the natural chain unless it says otherwise.
UniProt P35346: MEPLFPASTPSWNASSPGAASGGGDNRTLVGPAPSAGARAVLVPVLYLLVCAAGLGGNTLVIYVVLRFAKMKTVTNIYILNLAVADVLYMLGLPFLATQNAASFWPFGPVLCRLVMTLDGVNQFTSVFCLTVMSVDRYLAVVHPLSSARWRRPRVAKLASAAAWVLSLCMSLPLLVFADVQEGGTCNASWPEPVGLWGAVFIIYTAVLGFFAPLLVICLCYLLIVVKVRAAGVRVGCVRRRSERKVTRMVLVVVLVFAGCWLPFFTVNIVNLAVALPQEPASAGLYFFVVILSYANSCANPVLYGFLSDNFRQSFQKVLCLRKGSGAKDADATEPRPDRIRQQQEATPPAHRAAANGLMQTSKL

Experiments:
SSTR5 subtype [1] = target: T1, SSTR5 subtype (Homo sapiens, UniProt P35346); conditions: relative to octreotide; Schmid et al., 2004; cited from earlier work
SSTR5 subtype [2] = target: T1, SSTR5 subtype; conditions: relative to octreotide; Schmid et al., 2004; cited from earlier work; remark: listed apart in the source
[3] = Schmid and Silva, 2005; cited from earlier work

SMILES: NCCCC[C@@H]1NC(=O)[C@@H](Cc2c[nH]c3ccccc23)NC(=O)[C@H](c2ccccc2)NC(=O)[C@@H]2C[C@@H](OC(=O)NCCN)CN2C(=O)[C@H](Cc2ccccc2)NC(=O)[C@H](Cc2ccc(OCc3ccccc3)cc2)NC1=O [pasireotide, cyclo[{4-(NH2—C2H4—NH—CO—O-)Pro}-Phg-DTrp-Lys-Tyr(4-Bzl)-Phe]] (cyclo([Hyp]([CO-Ethylenediamine])[Phg][dW]KY(Bn)F); ring closure inferred)
- fold higher affinity than octreotide on the SSTR5 subtype (SSTR5 subtype [1]): 39 fold
- fold higher functional activity than octreotide on the SSTR5 subtype (SSTR5 subtype [2]): 153 fold
- t1/2 [3]: 11 h
